Patent publication US20060041123A1, “Antibacterial agents” (priority 2002, published 2006)
Some of these results come from one statement about several compounds together. For at least one compound, name, drawing or mass did not settle the structure.

Tested on: Staphylococcus aureus WCUH29, Streptococcus pneumoniae 1629, Streptococcus pyogenes CN 10, Enterococcus faecalis 2, Haemophilus influenzae NEMC1, E. coli 7623 …
Test: Antimicrobial activity assay: whole-cell MIC by broth microdilution (NCCLS M7-A6)
Assay type: cell-based
Settings: versus all the organisms named above (S. aureus WCUH29, S. pneumoniae 1629, S. pyogenes CN 10, E. faecalis 2, H. influenzae NEMC1, E. coli 7623, M. catarrhalis Ravasio)
Description: Whole-cell antimicrobial activity was determined by broth microdilution using the National Committee for Clinical Laboratory Standards (NCCLS) recommended procedure, Document M7-A6, “Methods for Dilution Susceptibility Tests for Bacteria that Grow Aerobically”. The compounds were tested in serial two-fold dilutions ranging from 0.016 to 16 mcg/mL. Compounds were evaluated against a panel of Gram-positive organisms, including Staphylococcus aureus WCUH29, Streptococcus pneumoniae 1629, Streptococcus pyogenes CN 10, and Enterococcus faecalis 2. In addition, compounds were evaluated against a panel of Gram-negative strains including Haemophilus influenzae NEMC1, E. coli 7623, and Moraxella catarrhalis Ravasio. The minimum inhibitory concentration (MIC) was determined as the lowest concentration of compound that inhibited visible growth. A mirror reader was used to assist in determining the MIC endpoint.
Compounds of the present invention have MIC's ≦20 μg/ml versus all the organisms named above.

COc1ccc2ncc(F)c(CCN3CC[C@@H](NCc4ccc5c(c4)OCCO5)[C@H](O)C3)c2n1.Cl.Cl (single isomer, unassigned; enantiomer e2) [Example 174, trans-4-[(2,3-dihydro-1,4-benzodioxin-6-ylmethyl)amino]-1-{2-[3-fluoro-6-(methoxy)-1,5-naphthyridin-4-yl]ethyl}-3-piperidinol dihydrochloride Enantiomer E2]
MIC: ≤ 2 µg/mL

COc1cc(F)c2ncc(F)c(CCN3CC[C@@H](NCc4ccc5c(c4)OCCO5)[C@@H](O)C3)c2c1.Cl.Cl (single isomer, unassigned; enantiomer e2) [Example 177]
MIC: ≤ 2 µg/mL

COc1cc(F)c2ncc(F)c(CCN3CCC(NCc4cnc5c(c4)NC(=O)CS5)C(F)C3)c2c1.Cl.Cl (single isomer, unassigned; enantiomer e2) [Example 194, 7-{[(1-{2-[3,8-difluoro-6-(methoxy)-4-quinolinyl]ethyl}-3-fluoro-4-piperidinyl)amino]methyl}-1H-pyrido[2,3-b][1,4]thiazin-2(3H)-one dihydrochloride Enantiomer E2]
MIC: ≤ 2 µg/mL

COc1ccc2ncc(F)c(CCN3CCC(NCc4ccc5c(n4)NC(=O)CC5)CC3)c2n1 [Example 127]
MIC: ≤ 2 µg/mL

COc1ccc2ncc(F)c(CCN3CC[C@@](C)(NCc4ccc5c(n4)NC(=O)CS5)[C@H](O)C3)c2n1.Cl.Cl (single isomer, unassigned; enantiomer e1) [Example 122, 6-{[trans-1-{2-[3-fluoro-6-(methoxy)-1,5-naphthyridin-4-yl]ethyl}-3-hydroxy-4-methyl-4-piperidinyl)amino]methyl}-2H-pyrido[3,2-b][1,4]thiazin-3(4H)-one dihydrochloride Enantiomer E1]
MIC: ≤ 2 µg/mL

COc1ccc2ncc(F)c(C(O)CN3CCC(NCc4ccc5c(n4)NC(=O)CO5)CC3)c2n1.Cl.Cl (single isomer, unassigned; enantiomer e2) [Example 181, 6-{[(1-{2-[3-fluoro-6-(methoxy)-1,5-naphthyridin-4-yl]-2-hydroxyethyl}-4-piperidinyl)amino]methyl}-2H-pyrido[3,2-b][1,4]oxazin-3(4H)-one dihydrochloride Enantiomer E2]
MIC: ≤ 2 µg/mL

COc1ccc2ncc(F)c(CCN3CC[C@@H](NC(=O)c4ccc5c(n4)NC(=O)CS5)[C@H](O)C3)c2n1.Cl (single isomer, unassigned; enantiomer e2) [Example 118, N-trans-1-{2-[3-fluoro-6-(methoxy)-1,5-naphthyridin-4-yl]ethyl}-3-hydroxy-4-piperidinyl)-3-oxo-3,4-dihydro-2H-pyrido[3,2-b][1,4]thiazine-6-carboxamide hydrochloride Enantiomer E2]
MIC: ≤ 2 µg/mL

COc1ccc2ncc(F)c(CCN3CCC(NCc4nc5c(F)cccc5[nH]4)CC3)c2c1 [Example 76, N-[(4-fluoro-1 benzimidazol-2-yl)methyl]-1-{2-[3-fluoro-6-(methoxy)-4-quinolinyl]ethyl}-4-piperidinamine]
MIC: ≤ 2 µg/mL

COc1ccc2ncc(F)c(CCN3CC[C@@H](NCc4ccc5c(n4)NC(=O)CS5)[C@H](O)C3)c2c1.Cl.Cl (single isomer, unassigned; enantiomer e2) [Example 116, 6-{[trans-1-{2-[3-fluoro-6-(methoxy)-4-quinolinyl]ethyl}-3-hydroxy-4-piperidinyl)amino]methyl}-2H-pyrido[3,2-b][1,4]thiazin-3(4H)-one dihydrochloride Enantiomer E2]
MIC: ≤ 2 µg/mL

COc1ccc2ncc(F)c(CCN3CC[C@@H](NCc4ccc5c(n4)NC(=O)CS5)[C@H](O)C3)c2n1.Cl.Cl (single isomer, unassigned; enantiomer e2) [Example 113, 6-{[trans-1-{2-[3-fluoro-6-(methoxy)-1,5-naphthyridin-4-yl]ethyl}-3-hydroxy-4-piperidinyl)amino]methyl}-2H-pyrido[3,2-b][1,4]thiazin-3(4H)-one dihydrochloride Enantiomer E2]
MIC: ≤ 2 µg/mL

Cl.Cl.O=C1CSc2ccc(CN[C@@H]3CCN(CCc4c(Cl)cnc5ccc(F)cc45)C[C@@H]3O)nc2N1 (single isomer, unassigned; enantiomer e2) [Example 165]
MIC: ≤ 2 µg/mL

Cl.Cl.O=C1CSc2ccc(CN[C@@H]3CCN(CCc4c(Cl)cnc5ccc(Cl)cc45)C[C@@H]3O)nc2N1 (single isomer, unassigned; enantiomer e2) [Example 163]
MIC: ≤ 2 µg/mL

COc1ccc2ncc(F)c(CCN3CC[C@@H](NCc4ccc5c(n4)NC(=O)CS5)[C@](C)(O)C3)c2n1.Cl.Cl (racemic) [Example 120, racemic, trans-6{[(1-{2-[3-fluoro-6-(methoxy)-1,5-naphthyridin-4-yl]ethyl}3-hydroxy-3-methyl-4-piperidinyl)amino]methyl}-2H-pyrido[3,2-b][1,4]thiazin-3(4H)-one dihydrochloride]
MIC: ≤ 2 µg/mL

COc1ccc2ncc(F)c(CCN3CC[C@@H](NCc4ccc5c(n4)NC(=O)CO5)[C@](C)(O)C3)c2n1.Cl.Cl (single isomer, unassigned; enantiomer e1) [Example 169, trans-6-{[(1-{2-[3-fluoro-6-(methoxy)-1,5-naphthyridin-4-yl]ethyl}-3-hydroxy-3-methyl-4-piperidinyl)amino]methyl}-2H-pyrido[3,2-b][1,4]oxazin-3(4H)-one dihydrochloride Enantiomer E1]
MIC: ≤ 2 µg/mL

COc1ccc2ncc(Cl)c(CCN3CC[C@@H](NCc4ccc5c(n4)NC(=O)CO5)[C@H](O)C3)c2c1.Cl.Cl.Cl (single isomer, unassigned; enantiomer 1) [Example 20, 6-(trans)-1-[2-(3-Chloro-6-methoxyquinolin-4-yl)ethyl]3-hydroxypiperidin-4-yl amino}methyl)-4H-pyrido[3,2-b][1,4]oxazin-3-one Trihydrochloride enantiomer 1]
MIC: ≤ 2 µg/mL
